Source: patent US20120040976A1, “SMALL MOLECULE IMMUNOMODULATORS FOR ALZHEIMER'S DISEASE” (HUMAN BIOMOLECULAR RESEARCH INSTITUTE, priority 2008, published 2012)
At least one structure is not confirmed: it was looked up by name or label, or the drawing left a doubt.

Key:
VDR = VDR gene expression by qPCR in U-937 human monocytic cells treated with curcumins plus Aβ; format: cell-based; details: human monocytes
Procedure: (§1) Cell culture conditions for monocytic cell lines. Human and mouse monocyte cell lines are grown in RPMI-1640 medium with 10% fetal bovine serum (FBS), plus glutamine and pen/strep. For treatment with compounds (curcuminoids+/−Aβ), replicate sets of 0.5-1.0 mL cultures containing 1-2×10^6 cells are set up in the wells of 48-well tissue culture plates. Both replicate sets have at least one control well receiving no added curcuminoid to provide baseline expression controls for untreated, and Aβ-only treated cells. […]
(§2) RNA isolation and cDNA synthesis. […] One mL of total cellular RNA from each well is quantitated using a Nanodrop spectrophotometer, and first-strand total cDNA is prepared from 0.3-1.0 μg RNA by random-hexamer priming. […]
(§3) Assay development. Gene-specific mRNA levels are determined using a real-time thermocycler, and by normalizing to expression of one or more control genes. Assays for quantifying mRNA levels are based on gene sequences reported in NCBI Genbank. […] Melt curves based on incremental 0.5° C. increases are determined for new assays to test for uniformity of amplified products. […]
(§4) qPCR reactions of cultured monocyte cDNAs. […] SYBR-Green reactions were run on a Continuous Fluorescence real-time thermocycler and analyzed. Cycle threshold (Ct) values are recorded for each replicate reaction, and are then averaged and normalized against mean Ct values from one or more control genes. […]

TLR3 = TLR3 gene expression by qPCR in U-937 human monocytic cells treated with curcumins plus Aβ; format: cell-based; details: U-937, plus Aβ (FIG. 3)
Procedure: as §1, §2, §3, §4

SMILES | IC50 (Anti-oxidant activity) | VDR normalized expression response (in words) (VDR) | TLR3 expression response (in words) (TLR3)
COc1cc(/C=C/C(=O)/C=C(O)/C=C/c2ccc(OC(=O)C(N)C(C)C)c(OC)c2)ccc1OC(=O)C(N)C(C)C (centres unmarked) [Compound 35, 4,4′-(3,5-Dioxohepta-1,6-diene-1,7-diyl)bis(2-methoxy-4,1-phenylene)bis(2-amino-3-methylbutanoate)] | > 250 µM |  | 
CN(C)c1ccc(/C=C/C(=O)/C=C(O)/C=C/c2ccc(N(C)C)cc2)cc1 [Compound 20, 1,7-bis-(4-Dimethylaminophenyl)-5-hydroxy-hepta-1,4,6-trien-3-one] | > 250 µM |  | 
COc1cc(/C=C/C(=O)/C=C(O)/C=C/c2ccc(OC(=O)C(N)CCCCN)c(OC)c2)ccc1OC(=O)C(N)CCCCN (centres unmarked) [Compound 36, 4,4′-(3,5-dioxohepta-1,6-diene-1,7-diyl)bis(2-methoxy-4,1-phenylene)bis(2,6-diaminohexanoate)] | > 250 µM | modest increases | limited response
